Assay results from article PMC8619434 (Viruses, 2021).
pIC50: −log10 of the molar value. Like-named read-outs stand apart in the source and are kept apart here.

System: SARS-CoV-2 spike protein pseudovirus
Experiment: organism not typed
Assay type: cell-based

CN1CC2c3ccccc3Oc3ccc(Cl)cc3C2C1 (centres unmarked) [asenapine]
pIC50 (293T/ACE2, read-out: IC50 of SARS-CoV-2-S pseudovirus infectivity): 5.59
pIC50 (read-out: IC50 of SARS-CoV-2-S pseudovirus infectivity): 5.59
